PubChem BioAssay AID1159601 | NIAID, 2016
Test: 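Which toll-like receptor pathway genes are needed for TNF promoter activation by Pam3CSK4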 (primary screen). Cells: human THP-1 reporter cells differentiated with PMA into macrophage-like cells. Reagents: single siRNA against human genes. Duration: ligand added 4 hours before read-out; cells assayed 48 to 72 hours after siRNA transfection. Challenge: Pam3CSK4 (TLR2 ligand) for 4 hours; dose not given. Measurement: 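TNF promoter dual-luciferase ratio measured 4 h after Pam3CSK4, converted to robust z-scores against negative controls and averaged across replicates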. Reading the numbers: TNF reporter z-score: higher = stronger TNF promoter reporter activity. Call rule: 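The depositor grades each siRNA by the size of its mean z-score in either direction, with steps at 1, 1.5, 2 and 2.5; active calls sit near -1.5 or below, or near 1.5 or above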. Calls: active = clear change (up or down); inactive = little change.
Here is an unselected part of 756 deposited reagents. 143 of them (19%) count as active. 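Calls include both lowered and raised reporter signal; each row is a single siRNA, not a gene summary; Pam3CSK4 dose not stated.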 The numbers tell different reagents against one gene apart. Not stated in the record: the amount of reagent.

| Target gene | reagent | TNF reporter z-score, replicate mean | activity call |
| --- | --- | --- | --- |
| TLR3 (toll like receptor 3) | 1 | 1.86 | active |
| TLR3 (toll like receptor 3) | 2 | -1.75 | active |
| TLR3 (toll like receptor 3) | 3 | 0.00714 | inactive |
| TLR3 (toll like receptor 3) | 4 | -0.171 | inactive |
| TLR3 (toll like receptor 3) | 5 | -0.189 | inactive |
| TLR3 (toll like receptor 3) | 6 | -0.451 | inactive |
| IRF9 (interferon regulatory factor 9) | 1 | -1.3 | inactive |
| IRF9 (interferon regulatory factor 9) | 2 | -0.701 | inactive |
| IRF9 (interferon regulatory factor 9) | 3 | -0.818 | inactive |
| IRF9 (interferon regulatory factor 9) | 4 | -2.56 | active |
| IRF9 (interferon regulatory factor 9) | 5 | -1.02 | inactive |
| IRF9 (interferon regulatory factor 9) | 6 | -1.3 | inactive |
| TLR1 (toll like receptor 1) | 1 | 1.95 | active |
| TLR1 (toll like receptor 1) | 2 | -1.09 | inactive |
| TLR1 (toll like receptor 1) | 3 | -1.75 | active |
| TLR1 (toll like receptor 1) | 4 | 1.07 | inactive |
| TLR1 (toll like receptor 1) | 5 | -0.999 | inactive |
| TLR1 (toll like receptor 1) | 6 | -0.201 | inactive |
| MAP3K8 (mitogen-activated protein kinase kinase kinase 8) | 1 | -1.91 | active |
| MAP3K8 (mitogen-activated protein kinase kinase kinase 8) | 2 | -2.72 | active |
| MAP3K8 (mitogen-activated protein kinase kinase kinase 8) | 3 | -2.89 | active |
| MAP3K8 (mitogen-activated protein kinase kinase kinase 8) | 4 | -1.02 | inactive |
| MAP3K8 (mitogen-activated protein kinase kinase kinase 8) | 5 | -2.47 | active |
| MAP3K8 (mitogen-activated protein kinase kinase kinase 8) | 6 | -0.736 | inactive |
| CXCL11 (C-X-C motif chemokine ligand 11) | 1 | -1.63 | active |
| CXCL11 (C-X-C motif chemokine ligand 11) | 2 | 0.0883 | inactive |
| CXCL11 (C-X-C motif chemokine ligand 11) | 3 | -0.298 | inactive |
| CXCL11 (C-X-C motif chemokine ligand 11) | 4 | -0.51 | inactive |
| CXCL11 (C-X-C motif chemokine ligand 11) | 5 | -0.857 | inactive |
| CXCL11 (C-X-C motif chemokine ligand 11) | 6 | -0.525 | inactive |
| IL12A (interleukin 12A) | 1 | 0.118 | inactive |
| IL12A (interleukin 12A) | 2 | -0.924 | inactive |
| IL12A (interleukin 12A) | 3 | 0.323 | inactive |
| IL12A (interleukin 12A) | 4 | 0.0616 | inactive |
| IL12A (interleukin 12A) | 5 | -0.655 | inactive |
| IL12A (interleukin 12A) | 6 | -0.686 | inactive |
| CD180 (CD180 molecule) | 1 | -0.51 | inactive |
| CD180 (CD180 molecule) | 2 | -0.456 | inactive |
| CD180 (CD180 molecule) | 3 | -1.2 | inactive |
| CD180 (CD180 molecule) | 4 | -0.565 | inactive |
| CD180 (CD180 molecule) | 5 | -1.3 | inactive |
| CD180 (CD180 molecule) | 6 | -0.186 | inactive |
| MAP2K7 (mitogen-activated protein kinase kinase 7) | 1 | -0.4 | inactive |
| MAP2K7 (mitogen-activated protein kinase kinase 7) | 2 | -1.82 | active |
| MAP2K7 (mitogen-activated protein kinase kinase 7) | 3 | -1.21 | inactive |
| MAP2K7 (mitogen-activated protein kinase kinase 7) | 4 | -0.609 | inactive |
| MAP2K7 (mitogen-activated protein kinase kinase 7) | 5 | -3.11 | active |
| MAP2K7 (mitogen-activated protein kinase kinase 7) | 6 | -1.33 | inactive |
| STAT1 (signal transducer and activator of transcription 1) | 1 | 0.0171 | inactive |
| STAT1 (signal transducer and activator of transcription 1) | 2 | -0.721 | inactive |
| STAT1 (signal transducer and activator of transcription 1) | 3 | 0.412 | inactive |
| STAT1 (signal transducer and activator of transcription 1) | 4 | 0.18 | inactive |
| STAT1 (signal transducer and activator of transcription 1) | 5 | 0.311 | inactive |
| STAT1 (signal transducer and activator of transcription 1) | 6 | 0.928 | inactive |
| TOLLIP (toll interacting protein) | 1 | -1.4 | inactive |
| TOLLIP (toll interacting protein) | 2 | -0.473 | inactive |
| TOLLIP (toll interacting protein) | 3 | 0.126 | inactive |
| TOLLIP (toll interacting protein) | 4 | -1.06 | inactive |
| TOLLIP (toll interacting protein) | 5 | -1.19 | inactive |
| TOLLIP (toll interacting protein) | 6 | -0.445 | inactive |
| TAB1 (TGF-beta activated kinase 1 (MAP3K7) binding protein 1) | 1 | -1.07 | inactive |
| TAB1 (TGF-beta activated kinase 1 (MAP3K7) binding protein 1) | 2 | -1.97 | active |
| TAB1 (TGF-beta activated kinase 1 (MAP3K7) binding protein 1) | 3 | -0.204 | inactive |
| TAB1 (TGF-beta activated kinase 1 (MAP3K7) binding protein 1) | 4 | -1.31 | inactive |
| TAB1 (TGF-beta activated kinase 1 (MAP3K7) binding protein 1) | 5 | -1.52 | active |
| TAB1 (TGF-beta activated kinase 1 (MAP3K7) binding protein 1) | 6 | -2.11 | active |
| NFKBIB (NFKB inhibitor beta) | 1 | -0.805 | inactive |
| NFKBIB (NFKB inhibitor beta) | 2 | -0.304 | inactive |
| NFKBIB (NFKB inhibitor beta) | 3 | -0.202 | inactive |
| NFKBIB (NFKB inhibitor beta) | 4 | -0.749 | inactive |
| NFKBIB (NFKB inhibitor beta) | 5 | 0.605 | inactive |
| NFKBIB (NFKB inhibitor beta) | 6 | 0.0809 | inactive |
| TBK1 (TANK binding kinase 1) | 1 | -1.41 | inactive |
| TBK1 (TANK binding kinase 1) | 2 | -0.533 | inactive |
| TBK1 (TANK binding kinase 1) | 3 | 1.4 | inactive |
| TBK1 (TANK binding kinase 1) | 4 | 0.613 | inactive |
| TBK1 (TANK binding kinase 1) | 5 | -0.621 | inactive |
| TBK1 (TANK binding kinase 1) | 6 | -1.03 | inactive |

8 entries from above, arranged by “TNF reporter z-score, replicate mean”, highest first:
| Target gene | reagent | TNF reporter z-score, replicate mean | activity call |
| --- | --- | --- | --- |
| CXCL11 (C-X-C motif chemokine ligand 11) | 2 | 0.0883 | inactive |
| CXCL11 (C-X-C motif chemokine ligand 11) | 3 | -0.298 | inactive |
| CXCL11 (C-X-C motif chemokine ligand 11) | 4 | -0.51 | inactive |
| MAP3K8 (mitogen-activated protein kinase kinase kinase 8) | 6 | -0.736 | inactive |
| MAP3K8 (mitogen-activated protein kinase kinase kinase 8) | 4 | -1.02 | inactive |
| CXCL11 (C-X-C motif chemokine ligand 11) | 1 | -1.63 | active |
| MAP3K8 (mitogen-activated protein kinase kinase kinase 8) | 5 | -2.47 | active |
| MAP3K8 (mitogen-activated protein kinase kinase kinase 8) | 3 | -2.89 | active |
